Assay: Global warming potential (GWP), calculated for mixtures per Regulation (EU) NO 517/2014

SMILES | GWP (pure gas) | GWP (mixed gas of CF3OCFCF2 and CO2, mixing ratio mol %, calculated per Regulation (EU) NO 517/2014)
N#CC(F)(C(F)(F)F)C(F)(F)F [(CF3)2CFCN, heptafluoroisobutyronitrile] | 2,400 | 
FC(F)=C(F)OC(F)(F)F [CF3OCFCF2, trifluoromethyl trifluorovinyl ether] | 0.170 | 0.170
FS(F)(F)(F)(F)F [SF6, reference compound] | 23,500 | 
